Fewer than 10 of roughly 1,000 compounds were called active.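 Rule for the calls: active = fitted half-maximal concentration no higher than twice the top valid tested dose, with signal falling; inconclusive = flat curve with 30 to 70% inhibition, or poor fit; inactive = the rest.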 The list shows a part of the results. Results with a measured potency or affinity are listed apart.
biological target: Golgi-associated PDZ and coiled-coil motif-containing protein (Homo sapiens) (UniProt Q9HD26); assay: blockers of CAL PDZ–TMR peptide complex – biochemical, fluorescence polarization, untagged CAL PDZ, cherry-pick, set 2, dose response (AID 602254); conditions: Purified CAL PDZ; at 60 µM (top of the series);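 note: 0% = DMSO neutral control and -100% = unlabeled peptide PRC23 positive control; more negative means stronger blocking of peptide binding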

Activity change, negative = inhibition, inactive:
CCN1CCCc2cc(CN(CCN3CCOCC3)C(=S)Nc3cccc(C)c3)ccc21 1.91%, Cc1cc(NC(=O)CN(C)S(=O)(=O)c2cccc(Cl)c2)no1 -2.42%, COc1ccc2oc(=O)c(C(=O)Nc3ccccc3O)cc2c1 -3.2%, CCn1cc(CN2CCCC(C(=O)Nc3cccc(-c4cc5ccccc5[nH]4)c3)C2)cn1 (configuration not stated) -1.19%, O=C(NNC(=O)C1CCC1)c1ccc(Br)cc1 -0.869%, COC(=O)c1c(C)nc2nonc2c1N 0.881%, COc1ccccc1NC(=O)Nc1ccnn1Cc1cccs1 -4.14%, CCCCc1ncc(CN2CCC(n3nccc3NC(=O)c3ccccc3OC)CC2)[nH]1 -1.59%, Oc1ccc(/C=C/c2ccc3ccccc3n2)cc1 -4.31%, COc1ccc(NC(=O)NC2(C(=O)N3CCN(C)CC3)CCCCC2)cc1 1.07%, Cc1ccc(N2CCN(CCCCN3C(=O)C4CCCN4C3=O)CC2)cc1 (configuration not stated) -1.07%, CCn1nnc(NC(=O)Cc2ccc(Cl)cc2)n1 -0.719%, COc1cccc(OC)c1C(=O)Nc1cccc(C(C)=O)c1 -0.101%, Fc1cccc(Cc2noc(CN3CCSCC3)n2)c1 2.57%, COCn1c(-c2ccc(OC)cc2)nc2ccccc21 1.04%, O=C(c1ccc2nc[nH]c2c1)N1CCc2ccccc2C1 1.11%, O=C(NCc1ccc(Cl)cc1)c1ccc(CNc2c(N3CCOCC3)c(=O)c2=O)cc1 -0.987%, O=C(NCCc1ccccc1)c1ccc(NC(=O)C2CC2)cc1 -0.339%, CCSc1ccccc1C(=O)NCCc1ccccc1 -8.58%, O=S(=O)(c1ccc2c(c1)CCCN2)N1CCCC1 -1.73%, CCN(CC)S(=O)(=O)c1ccc(NC(=S)NC(=O)C2CCC2)cc1 -0.169%, CC(C)(CN1CCCC1)NC(=O)C1CCC(=O)N(CCCN2CCOCC2)C1 (configuration not stated) -2.01%, COc1cccc(/C=N/NC(=O)c2c(C)nc3ccc(Cl)cn23)c1O 0.561%, CCOCCc1nnc(NC(=O)C2CC(=O)N(CCc3ccc(F)cc3)C2)s1 (configuration not stated) 3.61%, Cn1cccc1/C=C1\SC(=S)N(NC(=O)c2ccc(Cl)cc2)C1=O -0.393%, Cc1cccc(N2CCN(CC3CCCCC3)CC2)c1C -2%, CSc1cccc(NC(=O)CNC(=O)c2ccc3c(c2)OCO3)c1 -11.1%
